Reference: PubChem BioAssay AID720505 (Drosophila RNAi Screening Center, 2013)

Test: 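Genes needed for store-operated calcium entry in fly cells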 (primary screen)
Cell system: Drosophila S2R+ cells
Reagent: long dsRNA against Drosophila genes
Challenge: thapsigargin (2 µM) in calcium-free buffer to empty internal stores, then 2 mM calcium added back
Read-out: 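Fluo-4 signal in 384-well plates read on a FLIPR after thapsigargin (2 µM, calcium-free) store depletion and 2 mM calcium add-back; unnormalised mean endpoint per well; screen run twice, selected wells retested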
Direction: calcium signal and retest calcium signal: higher = more calcium entry after store depletion
Active means: 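About 1500 genes called as lowering calcium entry, by varying amounts, judged against per-plate control wells with STIM1 as positive and Rho1 as negative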
Calls: active = called as lowering calcium entry; inactive = not called
In all, the deposit lists about 20,000 reagents; below is a random part of those with a known target gene and a result. Over the whole deposit, about 2,100 (10%) are marked active. 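Raw plate signals without normalisation; calls rest on control-based scores that were not deposited; replicate 2 separates called from uncalled poorly.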 A number with no mark means an inactive call. Reagents against one gene are numbered here. Names joined by + are all predicted targets of the reagent. Not given: the amount of reagent, the time to read-out.

Gene	reagent no.	calcium signal, replicate 1	calcium signal, replicate 2	retest calcium signal, replicate 1	retest calcium signal, replicate 2
MAN1	1	191	90.7		
CG3270	1	133	104		
CG16964	1	90.8	97.9		
UGP	1	113	150		
CG1998	1	93.1	97.2		
CG13282	1	77.2 (active)	90.9		
CG43187	1	70.4	102		
Cys	1	134	277		
CG10283	1	92.7	91.6		
net	1	169	119		
Iswi	1	79	135		
CG7058	1	81.4	87.7		
CG3706	1	122	142		
CCHa1-R	1	158	138		
CCHa1-R	2	178	166		
inv	1	105	208		
CG13082	1	161	103		
Pcd	1	203	197		
mute	1	89.6	89.8		
mute	2	101	159		
CG13760	1	121	117		
CG33331 + CG33332	1	178	198		
mars	1	158	167	104	145
CG32152	1	117	224		
pyd	1	6487	143		
pyd	2	92.6	97.5		
pyd	3	73.7 (active)	128		
pyd	4	94.9	169		
pyd	5	112	111		
pyd	6	84.8	178		
pyd	7	102	167		
pyd	8	156	114		
pyd	9	107	152		
CG13613	1	225	162		
Cht5	1	72.6 (active)	127	83.3	92.3
kkv	1	74.5 (active)	118		
corn	1	141	148		
corn	2	109	238		
Prosbeta2R2	1	96.9	87.2		
CG30392	1	103	198		
CG32603	1	91.3	123		
CG32603	2	109	89.9		
CG11291	1	56.5	241		
Tengl2	1	79.5	272		
CkIIalpha-i3	1	54 (active)	133		
CG1638	1	61.5 (active)	85.8		
CG7024	1	266	116		
CG11191	1	171	143		
CG11191	2	124	130		
RhoGAP92B	1	124	194		
RhoGAP92B	2	194	177		
Obp83a	1	119	147		
sff	1	158	90		
EMC6	1	80.5 (active)	176		
Nlg2	1	83.7	120		
Nlg2	2	170	123		
CG42531	1	57.1	117		
nis	1	137	202		
ATPsynD	1	119	150		
CG10126	1	98.9	103		
Ntf-2	1	235	109		
CG42588	1	76.2	85.2		
CG42588	2	72.6	107		
CG31805	1	111	87.9		
Elp5	1	77.7	80.3		
mof	1	178	96.5		
CG14292	1	64.5 (active)	81.1		
Or67a	1	38.1	123		
CG42715 (retired record)	1	98.2	84		
p47	1	66.2 (active)	213		
CCT8	1	173	125		
PheRS-m	1	198	170		
crim	1	108	82.8		
CG9426	1	111	108		
CG14355	1	93.7	137		
neur + asRNA:CR31429	1	142	123		
TTLL1A	1	105	99.2		
CG14397	1	176	73.3		
Ir7f	1	149	79.7		
Su(var)205	1	117	229		
CG42788	1	153	230		
CG42788	2	131	226		
CG42788	3	144	189		
GV1	1	107	130		
Gr58a	1	120	6284		
Lint-O	1	122	122		
CG31198	1	118	140		
CG11550	1	53.9 (active)	143		
l(3)mbt	1	132	167		
rush	1	80.5	96.4		
eIF3c	1	122	115		
PAPLA1	1	117	186		
PAPLA1	2	143	151		
CG2915	1	140	90		
cm + Inx7	1	121	94.8		
Yif1	1	89.6	112		
P5CDh1	1	126	114		
CG13733	1	100	113		
Nrg	1	144	94.9		
CCDC151	1	65 (active)	50		
unpg	1	137	117		
CG7386	1	115	95.4		
CG4617	1	100	92.3		
Wee1	1	189	116		
Wee1	2	112	124		
PH4alphaMP	1	143	147		

In a second layout: results already given.
CG42788 #1
- calcium signal, replicate 1: 153
- calcium signal, replicate 2: 230

CG42788 #2
- calcium signal, replicate 1: 131
- calcium signal, replicate 2: 226

CG42788 #3
- calcium signal, replicate 1: 144
- calcium signal, replicate 2: 189

GV1
- calcium signal, replicate 1: 107
- calcium signal, replicate 2: 130

Gr58a
- calcium signal, replicate 1: 120
- calcium signal, replicate 2: 6284

Lint-O
- calcium signal, replicate 1: 122
- calcium signal, replicate 2: 122

CG31198
- calcium signal, replicate 1: 118
- calcium signal, replicate 2: 140

CG11550
- calcium signal, replicate 1: 53.9 (active)
- calcium signal, replicate 2: 143

l(3)mbt
- calcium signal, replicate 1: 132
- calcium signal, replicate 2: 167

rush
- calcium signal, replicate 1: 80.5
- calcium signal, replicate 2: 96.4

eIF3c
- calcium signal, replicate 1: 122
- calcium signal, replicate 2: 115

PAPLA1 #1
- calcium signal, replicate 1: 117
- calcium signal, replicate 2: 186

PAPLA1 #2
- calcium signal, replicate 1: 143
- calcium signal, replicate 2: 151
